Values of other authors as cited in patent US20250268834A1, “IONIC LIQUID SALTS OF ACTIVE PHARMACEUTICAL INGREDIENTS” (GlaxoSmithKline Consumer Healthcare Holdings (US) LLC, priority 2021, published 2025).
Where two headings read alike, the source gives them in different places.

solubility (37° C. in water, across pH range ~1-9): approximately 20 mg/ml
solubility (80% PEG 400/water mixture): up to 260 mg/ml
Compound: CC(=O)Nc1ccc(O)cc1 [APAP, acetaminophen]
